# Data reported in patent publication US10280179B2, “Spiroquinoxaline derivatives as inhibitors of non-apoptotic regulated cell-death” (Helmholtz Zentrum Munchen—Deutches Forschungszentrum Fur …, priority 2013, dated 2019).
# At least one compound was matched to its structure with a doubt left. Some entries repeat one wording, which the source may state once for all of them.
# Test system: SH-SY5Y cells
# Assay: TNF-alpha-induced apoptosis, specificity for non-apoptotic cell death (Example B.3)
# Format: cell-based, human
# Conditions: compound 1 μM, TNF-alpha 10 ng/mL, FIG. 1
# Procedure: SH-SY5Y cells were propagated and seeded in 96-well plates, together with compound N-1, N-2, N-10 of Table 1-N (FIG. 1(a)), compound O/S-6 or O/S-3 of Table 1-O/S (FIG. 1(b)), or compound C-12, C-91, or C-205 of Table 1-C (FIG. 1(c)) (each 1 μM) and TNF-alpha was added (final concentration: 10 ng/mL) to induce apoptosis. The apoptosis and pan-caspase inhibitor z-vad (final concentration: 50 μM) and the necroptosis inhibitor Necrostatin-1 (Nec-1; final concentration: 5 μM) were used for comparison. Control wells were established with vehicle only (DMSO), with and without treatment with TNF-alpha to induce apoptosis. Cells were incubated, and cell survival was detected and quantified. Percentage cell survival after TNF-alpha-induced apoptosis is shown (error bars indicate standard deviation (SD)).
# Briefly, SH-SY5Y cells were propagated and seeded in 96-well plates, together with the compound to be tested (1 μM), generally as described in Example B.1, except they were seeded at 1,000 cell/well and instead of BSO, TNF-alpha (Invitrogen) was added to a final concentration of 10 ng/mL to induce apoptosis. The apoptosis and pan-caspase inhibitor Z-VAD-fmk (Enzo Life Science; final concentration 50 μM) and the necroptosis inhibitor Necrostatin-1 (Nec-1; Enzo Life Science; final concentration 5 μM) were used for comparison. Control wells were established with vehicle only (DMSO), with and without treatment with TNF-alpha to induce apoptosis. Cells were incubated, and cell survival was detected and quantified as described in Example B.1.
row,Compound,Percentage cell survival after TNF-alpha-induced apoptosis
1,Cc1ccc(CNC2=Nc3ccccc3NC23CCCCC3)cc1 [C-12],Non-inhibition of apoptotic cell-death
2,Cc1ccccc1CNC1=Nc2ccccc2NC12CCNCC2 [N-10],Non-inhibition of apoptotic cell-death
3,Fc1ccc(CNC2=Nc3ccccc3NC23CCOCC3)cc1 [O/S-6],Non-inhibition of apoptotic cell-death
